# Experimental data as given in the supplement of paper PMC10032668.
# The other results are listed elsewhere or left out. Only hits are listed; about a third recur on repeated control peptides.
# What was measured:
# Experiment in all cases: PRISMA enrichment of interactor (LFQ) in peptide spot vs all other peptide spots (log2 fold change); higher = stronger / more specific binding of the interactor to the peptide
# [1] = target: ADAMTS19, Q8TE59
# Method: (§1)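 PRISMA: 221 full-length sORF-encoded peptides (3-15 aa), plus SOS1/GLUT1 control peptides, were spot-synthesized on cellulose membranes in triplicate. Membranes were incubated with HEK293T lysate, and bound proteins were identified by LC-MS/MS with LFQ. Enrichment is the log2 fold change versus all other peptide spots; only significant interactors are listed (cutoff c=6, x0=2.8).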
# [2] = target: MRPL57, Q9BQC6
# Method: as §1
# [3] = target: PINX1, Q96BK5
# Method: as §1
# [4] = target: SAPCD2, Q86UD0
# Method: as §1
binder,measurement,setting,value
MEARDGC [TMEM39A],PRISMA enrichment of interactor (log2),[1],7.04
same,PRISMA enrichment of interactor (log2),[2],5.52
same,PRISMA enrichment of interactor (log2),[3],7.25
same,PRISMA enrichment of interactor (log2),[4],6.18
